For at least one compound, name, drawing or mass did not settle the structure.
Test system: IMR90
Assay: Effect of OHOD on normal fibroblasts in culture (Table 2)
Assay type: cell-based, human

With `CCCCCCCC/C=C\CCCCCCC(O)C(=O)O` (stereo not drawn) [OHOD, α-Hydroxy-cis-Δ9-octadecenoic] the Anti-tumour effect was “−”.

— patent US9730906B2, “α-derivatives of cis-monounsaturated fatty acids for use as medicines” (UNIVERSITAT DE LES ILLES BALEARS, priority 2008, dated 2017)
